Results are given in words; binding and its absence hold for the method and conditions named. In cells and extracts the contact can be indirect. These calls come from enrichment with a bait or labelling near it, and not all partners need be listed.
Biological target: DBF-2-GFP (N. crassa) (UniProt Q7SFS8)
Assay: affinity purification with mass spectrometry; GFP-trap precipitation of GFP-fusion baits from N. crassa cell extracts, mass spectrometry; two independent biological replicates; control purifications from GFP-expressing cells

Sequences of proteins named here, by UniProt entry; tags and fusion partners are left off. A change or cut given only in a name is not applied to a line headed by its entry.
UniProt Q7SFS8: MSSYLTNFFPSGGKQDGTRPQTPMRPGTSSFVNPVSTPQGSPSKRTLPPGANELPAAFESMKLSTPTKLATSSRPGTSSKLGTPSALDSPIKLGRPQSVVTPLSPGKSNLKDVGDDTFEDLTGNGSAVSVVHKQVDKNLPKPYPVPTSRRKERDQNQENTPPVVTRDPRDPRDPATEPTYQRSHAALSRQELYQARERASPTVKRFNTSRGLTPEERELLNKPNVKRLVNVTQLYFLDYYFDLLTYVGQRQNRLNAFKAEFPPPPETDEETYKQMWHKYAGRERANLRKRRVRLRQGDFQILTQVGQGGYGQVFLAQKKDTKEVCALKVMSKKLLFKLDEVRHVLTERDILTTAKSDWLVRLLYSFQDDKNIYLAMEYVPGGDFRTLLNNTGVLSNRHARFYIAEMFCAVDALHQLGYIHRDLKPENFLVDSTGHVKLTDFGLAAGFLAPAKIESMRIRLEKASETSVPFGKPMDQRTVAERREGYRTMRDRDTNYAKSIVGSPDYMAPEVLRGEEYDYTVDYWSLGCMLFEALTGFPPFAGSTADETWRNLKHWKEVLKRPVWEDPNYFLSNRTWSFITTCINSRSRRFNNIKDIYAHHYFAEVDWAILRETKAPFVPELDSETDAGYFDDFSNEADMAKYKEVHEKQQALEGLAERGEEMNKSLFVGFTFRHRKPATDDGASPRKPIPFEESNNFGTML
UniProt Q7S789: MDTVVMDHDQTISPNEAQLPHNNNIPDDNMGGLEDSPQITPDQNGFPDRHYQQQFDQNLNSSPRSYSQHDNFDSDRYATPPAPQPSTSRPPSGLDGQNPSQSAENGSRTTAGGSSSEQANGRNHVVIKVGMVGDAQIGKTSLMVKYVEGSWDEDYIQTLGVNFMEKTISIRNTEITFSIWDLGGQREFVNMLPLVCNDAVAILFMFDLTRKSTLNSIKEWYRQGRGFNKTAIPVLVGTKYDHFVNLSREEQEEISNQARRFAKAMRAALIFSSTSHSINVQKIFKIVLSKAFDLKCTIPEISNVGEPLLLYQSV

binding: binds
Substance: SPG-1/NCU08878 (from UniProt Q7S789)
